Reference: paper PMC5570506
These are yes or no findings as the source states them, for the method shown. In cells and extracts the contact can be indirect. Some binding calls cover weakened binding; strength is not graded here.

Target: T1, BCL2, mouse (mouse (endogenous in mouse skeletal muscle and brain)), P10417
T1 chain: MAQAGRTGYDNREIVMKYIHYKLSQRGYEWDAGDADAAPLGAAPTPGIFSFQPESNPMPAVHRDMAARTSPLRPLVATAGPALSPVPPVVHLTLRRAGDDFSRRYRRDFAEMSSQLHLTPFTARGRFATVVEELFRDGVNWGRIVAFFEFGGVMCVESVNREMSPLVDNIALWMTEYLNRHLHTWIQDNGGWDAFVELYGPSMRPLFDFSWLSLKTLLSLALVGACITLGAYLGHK
Assay: co-IP; skeletal muscle and brain of WT and Becn1^FA/FA mice homogenized in 50 mM Tris pH 7.5, 150 mM NaCl, 1 mM EDTA, 1% Triton X-100; immunoprecipitation with anti-BCL2 antibody agarose beads, blot for BECN1 and BCL2
Settings: remark: other sources report otherwise

binding: binds
B1: BECN1 (Beclin 1), wild-type mouse, O88597 1-448 (protein)
chain: MEGSKASSSTMQVSFVCQRCSQPLKLDTSFKILDRVTIQELTAPLLTTAQAKPGETQEEEANSGEEPFIETRQDGVSRRFIPPARMMSTESANSFTLIGEASDGGTMENLSRRLKVTGDLFDIMSGQTDVDHPLCEECTDTLLDQLDTQLNVTENECQNYKRCLEILEQMNEDDSEQLQRELKELALEEERLIQELEDVEKNRKVVAENLEKVQAEAERLDQEEAQYQREYSEFKRQQLELDDELKSVENQVRYAQIQLDKLKKTNVFNATFHIWHSGQFGTINNFRLGRLPSVPVEWNEINAAWGQTVLLLHALANKMGLKFQRYRLVPYGNHSYLESLTDKSKELPLYCSGGLRFFWDNKFDHAMVAFLDCVQQFKEEVEKGETRFCLPYRMDVEKGKIEDTGGSGGSYSIKTQFNSEEQWTKALKFMLTNLKWGLAWVSSQFYNK
